Some of the results follow.
Assays:
Experiment in all cases: glycan array binding signal (z-score within array); higher = stronger binding
Conditions in all cases: glycan notation: IUPAC condensed, linker removed
[1] = target: Gal(b1-4)GlcNAc(b1-2)[Gal(b1-4)GlcNAc(b1-6)]Man(a1-6)[Gal(b1-4)GlcNAc(b1-2)Man(a1-3)]Man(b1-4)GlcNAc(b1-4)[Fuc(a1-6)]GlcNAc
In short: (§1)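 Glycan array binding is given as a within-array Z-score, which can be read as non-binding when negative. The arrays, 3228 of them, came from the Consortium for Functional Glycomics database and were retained only where the protein sequence was available. Z-scores were averaged across arrays of the same protein sequence at different concentrations or buffers and across linkers.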

[2] = target: Gal(b1-4)GlcNAc(b1-2)[Gal(b1-4)GlcNAc(b1-6)]Man(a1-6)[GlcNAc(b1-4)][Gal(b1-4)GlcNAc(b1-2)Man(a1-3)]Man(b1-4)GlcNAc(b1-4)GlcNAc
In short: as §1

[3] = target: Gal(b1-4)GlcNAc(b1-2)[Gal(b1-4)GlcNAc(b1-6)]Man(a1-6)[GlcNAc(b1-4)][Gal(b1-4)GlcNAc(b1-2)[Gal(b1-4)GlcNAc(b1-4)]Man(a1-3)]Man(b1-4)GlcNAc(b1-4)[Fuc(a1-6)]GlcNAc
In short: as §1

[4] = target: Gal(b1-4)GlcNAc(b1-3)Gal(b1-3)GalNAc
In short: as §1

[5] = target: Gal(b1-4)GlcNAc(b1-3)Gal(b1-3)GlcNAc
In short: as §1

[6] = target: Gal(b1-4)GlcNAc(b1-3)Gal(b1-4)Glc
In short: as §1

[7] = target: Gal(b1-4)GlcNAc(b1-3)Gal(b1-4)GlcNAc
In short: as §1

[8] = target: Gal(b1-4)GlcNAc(b1-3)Gal(b1-4)GlcNAc(b1-2)Man(a1-3)[Gal(b1-4)GlcNAc(b1-3)Gal(b1-4)GlcNAc(b1-2)Man(a1-6)]Man(b1-4)GlcNAc(b1-4)GlcNAc
In short: as §1

[9] = target: Gal(b1-4)GlcNAc(b1-3)Gal(b1-4)GlcNAc(b1-2)Man(a1-3)[Gal(b1-4)GlcNAc(b1-3)Gal(b1-4)GlcNAc(b1-2)Man(a1-6)]Man(b1-4)GlcNAc(b1-4)[Fuc(a1-6)]GlcNAc
In short: as §1

[10] = target: Gal(b1-4)GlcNAc(b1-3)Gal(b1-4)GlcNAc(b1-2)[Gal(b1-4)GlcNAc(b1-3)Gal(b1-4)GlcNAc(b1-6)]Man(a1-6)[Gal(b1-4)GlcNAc(b1-3)Gal(b1-4)GlcNAc(b1-2)Man(a1-3)]Man(b1-4)GlcNAc(b1-4)GlcNAc
In short: as §1

[11] = target: Gal(b1-4)GlcNAc(b1-3)Gal(b1-4)GlcNAc(b1-2)[Gal(b1-4)GlcNAc(b1-3)Gal(b1-4)GlcNAc(b1-6)]Man(a1-6)[Gal(b1-4)GlcNAc(b1-3)Gal(b1-4)GlcNAc(b1-2)Man(a1-3)]Man(b1-4)GlcNAc(b1-4)[Fuc(a1-6)]GlcNAc
In short: as §1

[12] = target: Gal(b1-4)GlcNAc(b1-3)Gal(b1-4)GlcNAc(b1-3)Gal(b1-4)GlcNAc
In short: as §1

[13] = target: Gal(b1-4)GlcNAc(b1-3)Gal(b1-4)GlcNAc(b1-3)Gal(b1-4)GlcNAc(b1-2)Man(a1-3)[Gal(b1-4)GlcNAc(b1-3)Gal(b1-4)GlcNAc(b1-3)Gal(b1-4)GlcNAc(b1-2)Man(a1-6)]Man(b1-4)GlcNAc(b1-4)GlcNAc
In short: as §1

[14] = target: Gal(b1-4)GlcNAc(b1-3)Gal(b1-4)GlcNAc(b1-3)Gal(b1-4)GlcNAc(b1-2)Man(a1-3)[Gal(b1-4)GlcNAc(b1-3)Gal(b1-4)GlcNAc(b1-3)Gal(b1-4)GlcNAc(b1-2)Man(a1-6)]Man(b1-4)GlcNAc(b1-4)[Fuc(a1-6)]GlcNAc
In short: as §1

[15] = target: Gal(b1-4)GlcNAc(b1-3)Gal(b1-4)GlcNAc(b1-3)Gal(b1-4)GlcNAc(b1-2)[Gal(b1-4)GlcNAc(b1-3)Gal(b1-4)GlcNAc(b1-3)Gal(b1-4)GlcNAc(b1-6)]Man(a1-6)[Gal(b1-4)GlcNAc(b1-3)Gal(b1-4)GlcNAc(b1-3)Gal(b1-4)GlcNAc(b1-2)Man(a1-3)]Man(b1-4)GlcNAc(b1-4)[Fuc(a1-6)]GlcNAc
In short: as §1

[16] = target: Gal(b1-4)GlcNAc(b1-3)Gal(b1-4)GlcNAc(b1-3)Gal(b1-4)GlcNAc(b1-3)Gal(b1-4)GlcNAc(b1-2)Man(a1-3)[Gal(b1-4)GlcNAc(b1-3)Gal(b1-4)GlcNAc(b1-3)Gal(b1-4)GlcNAc(b1-3)Gal(b1-4)GlcNAc(b1-2)Man(a1-6)]Man(b1-4)GlcNAc(b1-4)GlcNAc
In short: as §1

[17] = target: Gal(b1-4)GlcNAc(b1-3)Gal(b1-4)GlcNAc(b1-3)Gal(b1-4)GlcNAc(b1-3)Gal(b1-4)GlcNAc(b1-2)Man(a1-3)[Gal(b1-4)GlcNAc(b1-3)Gal(b1-4)GlcNAc(b1-3)Gal(b1-4)GlcNAc(b1-3)Gal(b1-4)GlcNAc(b1-2)Man(a1-6)]Man(b1-4)GlcNAc(b1-4)[Fuc(a1-6)]GlcNAc
In short: as §1

[18] = target: Gal(b1-4)GlcNAc(b1-3)Gal(b1-4)GlcNAc(b1-3)Gal(b1-4)GlcNAc(b1-3)Gal(b1-4)GlcNAc(b1-2)[Gal(b1-4)GlcNAc(b1-3)Gal(b1-4)GlcNAc(b1-3)Gal(b1-4)GlcNAc(b1-3)Gal(b1-4)GlcNAc(b1-6)]Man(a1-6)[Gal(b1-4)GlcNAc(b1-3)Gal(b1-4)GlcNAc(b1-3)Gal(b1-4)GlcNAc(b1-3)Gal(b1-4)GlcNAc(b1-2)Man(a1-3)]Man(b1-4)GlcNAc(b1-4)[Fuc(a1-6)]GlcNAc
In short: as §1

[19] = target: Gal(b1-4)GlcNAc(b1-3)Gal(b1-4)GlcNAc(b1-3)Gal(b1-4)GlcNAc(b1-3)Gal(b1-4)GlcNAc(b1-3)Gal(b1-4)GlcNAc(b1-2)Man(a1-3)[Gal(b1-4)GlcNAc(b1-3)Gal(b1-4)GlcNAc(b1-3)Gal(b1-4)GlcNAc(b1-3)Gal(b1-4)GlcNAc(b1-3)Gal(b1-4)GlcNAc(b1-2)Man(a1-6)]Man(b1-4)GlcNAc(b1-4)GlcNAc
In short: as §1

[20] = target: Gal(b1-4)GlcNAc(b1-3)Gal(b1-4)GlcNAc(b1-3)Gal(b1-4)GlcNAc(b1-3)Gal(b1-4)GlcNAc(b1-3)Gal(b1-4)GlcNAc(b1-2)Man(a1-3)[Gal(b1-4)GlcNAc(b1-3)Gal(b1-4)GlcNAc(b1-3)Gal(b1-4)GlcNAc(b1-3)Gal(b1-4)GlcNAc(b1-3)Gal(b1-4)GlcNAc(b1-2)Man(a1-6)]Man(b1-4)GlcNAc(b1-4)[Fuc(a1-6)]GlcNAc
In short: as §1

[21] = target: Gal(b1-4)GlcNAc(b1-3)Gal(b1-4)GlcNAc(b1-3)Gal(b1-4)GlcNAc(b1-3)Gal(b1-4)GlcNAc(b1-3)Gal(b1-4)GlcNAc(b1-2)[Gal(b1-4)GlcNAc(b1-3)Gal(b1-4)GlcNAc(b1-3)Gal(b1-4)GlcNAc(b1-3)Gal(b1-4)GlcNAc(b1-3)Gal(b1-4)GlcNAc(b1-6)]Man(a1-6)[Gal(b1-4)GlcNAc(b1-3)Gal(b1-4)GlcNAc(b1-3)Gal(b1-4)GlcNAc(b1-3)Gal(b1-4)GlcNAc(b1-3)Gal(b1-4)GlcNAc(b1-2)Man(a1-3)]Man(b1-4)GlcNAc(b1-4)[Fuc(a1-6)]GlcNAc
In short: as §1

[22] = target: Gal(b1-4)GlcNAc(b1-3)Gal(b1-4)GlcNAc(b1-3)Gal(b1-4)GlcNAc(b1-3)Gal(b1-4)GlcNAc(b1-3)Gal(b1-4)GlcNAc(b1-3)Gal(b1-4)GlcNAc(b1-2)Man(a1-3)[Gal(b1-4)GlcNAc(b1-3)Gal(b1-4)GlcNAc(b1-3)Gal(b1-4)GlcNAc(b1-3)Gal(b1-4)GlcNAc(b1-3)Gal(b1-4)GlcNAc(b1-3)Gal(b1-4)GlcNAc(b1-2)Man(a1-6)]Man(b1-4)GlcNAc(b1-4)GlcNAc
In short: as §1

[23] = target: Gal(b1-4)GlcNAc(b1-3)Gal(b1-4)GlcNAc(b1-3)GalNAc
In short: as §1

[24] = target: Gal(b1-4)GlcNAc(b1-3)Gal(b1-4)GlcNAc(b1-3)[Gal(b1-4)GlcNAc(b1-3)Gal(b1-4)GlcNAc(b1-6)]GalNAc
In short: as §1

[25] = target: Gal(b1-4)GlcNAc(b1-3)Gal(b1-4)GlcNAc(b1-6)[Gal(b1-3)]GalNAc
In short: as §1

[26] = target: Gal(b1-4)GlcNAc(b1-3)Gal(b1-4)[Fuc(a1-3)]GlcNAc(b1-3)Gal(b1-4)[Fuc(a1-3)]GlcNAc
In short: as §1

[27] = target: Gal(b1-4)GlcNAc(b1-3)GalNAc
In short: as §1

[28] = target: Gal(b1-4)GlcNAc(b1-3)[Fuc(a1-3)GlcNAc(b1-6)]Gal(b1-4)Glc
In short: as §1

[29] = target: Gal(b1-4)GlcNAc(b1-3)[Gal(b1-4)GlcNAc(b1-6)]Gal(b1-4)GlcNAc
In short: as §1

[30] = target: Gal(b1-4)GlcNAc(b1-3)[GlcNAc(b1-6)]Gal(b1-4)GlcNAc
In short: as §1

[31] = target: Gal(b1-4)GlcNAc(b1-6)Gal(b1-4)GlcNAc
In short: as §1

[32] = target: Gal(b1-4)GlcNAc(b1-6)GalNAc
In short: as §1

[33] = target: Gal(b1-4)GlcNAc(b1-6)[Gal(b1-3)]GalNAc
In short: as §1

[34] = target: Gal(b1-4)GlcNAc(b1-6)[Gal(b1-4)GlcNAc(b1-3)]GalNAc
In short: as §1

[35] = target: Gal(b1-4)GlcNAc6P
In short: as §1

[36] = target: Gal(b1-6)Gal
In short: as §1

[37] = target: Gal3S(b1-3)GalNAc
In short: as §1

[38] = target: Gal3S(b1-3)GlcNAc
In short: as §1

B1: SUN4 (Saccharomyces cerevisiae), P53616 (protein)
chain: MGSSHHHHHHSSGLVPRGSHNGSIYGDLADFSGPYEKFEDGTIPCGQFPSGQGVIPISWLDEGGWSGVENTDTSTGGSCKEGSYCSYACQPGMSKTQWPSDQPSDGRSIGGLLCKDGYLYRSNTDTDYLCEWGVDAAYVVSELSNDVAICRTDYPGTENMVIPTYVQAGDSLPLTVVDQDTYYTWQGLKTSAQYYVNNAGISVEDACVWGSSSSGVGNWAPLNFGAGSSDGVAYLSLIPNPNNGNALNFNVKIVAADDSSTVNGECIYENGSFSGGSDGCTVSVTAGKAKFVLYN
glycan array binding signal (z-score) [1]: 1.36
glycan array binding signal (z-score) [2]: -0.281
glycan array binding signal (z-score) [3]: 0.27
glycan array binding signal (z-score) [4]: -0.696
glycan array binding signal (z-score) [5]: -0.224
glycan array binding signal (z-score) [6]: -0.568
glycan array binding signal (z-score) [7]: -0.967
glycan array binding signal (z-score) [8]: 2.66
glycan array binding signal (z-score) [9]: 2
glycan array binding signal (z-score) [10]: 0.506
glycan array binding signal (z-score) [11]: 1.67
glycan array binding signal (z-score) [12]: -0.393
glycan array binding signal (z-score) [13]: 0.805
glycan array binding signal (z-score) [14]: 2.9
glycan array binding signal (z-score) [15]: 1.44
glycan array binding signal (z-score) [16]: 1.29
glycan array binding signal (z-score) [17]: 1.54
glycan array binding signal (z-score) [18]: 0.519
glycan array binding signal (z-score) [19]: -0.275
glycan array binding signal (z-score) [20]: 0.385
glycan array binding signal (z-score) [21]: 1.85
glycan array binding signal (z-score) [22]: 0.625
glycan array binding signal (z-score) [23]: 0.436
glycan array binding signal (z-score) [24]: 1.79
glycan array binding signal (z-score) [25]: 1.13
glycan array binding signal (z-score) [26]: -0.015
glycan array binding signal (z-score) [27]: 0.243
glycan array binding signal (z-score) [28]: 0.07
glycan array binding signal (z-score) [29]: -1.28
glycan array binding signal (z-score) [30]: -0.542
glycan array binding signal (z-score) [31]: -0.769
glycan array binding signal (z-score) [32]: 0.067
glycan array binding signal (z-score) [33]: -0.789
glycan array binding signal (z-score) [34]: 0.441
glycan array binding signal (z-score) [35]: -1.18
glycan array binding signal (z-score) [36]: -0.735
glycan array binding signal (z-score) [37]: 0.884
glycan array binding signal (z-score) [38]: 0.398

— the supplement of paper PMC8728848
